Values of other authors, collected in US8628864B2, “Indolo[3,2,1-jk]carbazole compound and organic light-emitting device containing the same” (Canon Kabushiki Kaisha, priority 2010, dated 2014).
Some of these results come from one statement about several compounds together. At least one structure is not confirmed: it was looked up by name or label, or the drawing left a doubt.

Settings: host material; approximately; cited from earlier work

c1cc(-c2cccc(-n3c4ccccc4c4ccccc43)c2)cc(-n2c3ccccc3c3ccccc32)c1 [mCBP, 3,3′-biscarbazolyl-1,1′-biphenyl]
HOMO level: 5.8 to 5.9 eV
